Measurements from patent publication US20180104307A1 (University of California, published 2018).
These are yes or no findings as the source states them, for the method shown. Binding seen in cells or lysates may run through a third protein. Some entries that bind do so weakly or less than the wild type. Sequences can lack the tags named with a protein.

Amino acid sequences for entries named in this document (tags omitted). Residues count along the entry.
UniProt P35570, residues 2-516: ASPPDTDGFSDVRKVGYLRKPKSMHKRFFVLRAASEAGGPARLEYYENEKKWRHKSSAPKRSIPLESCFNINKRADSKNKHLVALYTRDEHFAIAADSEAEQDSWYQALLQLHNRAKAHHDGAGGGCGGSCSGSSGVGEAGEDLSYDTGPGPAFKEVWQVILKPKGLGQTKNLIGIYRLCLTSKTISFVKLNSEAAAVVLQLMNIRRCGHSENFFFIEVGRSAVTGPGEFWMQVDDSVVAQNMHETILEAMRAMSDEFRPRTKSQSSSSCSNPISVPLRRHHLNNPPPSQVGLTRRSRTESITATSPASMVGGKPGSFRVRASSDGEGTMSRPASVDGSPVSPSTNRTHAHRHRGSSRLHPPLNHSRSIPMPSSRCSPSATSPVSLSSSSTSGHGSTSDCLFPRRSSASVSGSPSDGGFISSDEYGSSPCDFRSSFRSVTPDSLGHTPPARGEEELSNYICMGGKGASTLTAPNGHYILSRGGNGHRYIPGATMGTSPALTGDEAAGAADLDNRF

Legend:
[1] = target: GST-tagged IRS1-N (aa 2-516) (UniProt P35570); test: GST pulldown with GST-IRS1-N (FIG. 19A)
[2] = target: GST-tagged IRS1-N (aa 2-516) (UniProt P35570); test: GST pulldown with GST-IRS1-N, anti-His immunoblot

binding [1]: binds | binding [2]: binds
B1: His-tagged GIV-CT-SD (protein, not shown: small tags and cut ends)
chain: SETLESRHHKIKTGSPGSEVVTLQQFLEEDNKLTSVQIKSSSQENLLDEVMKSLSVSSDFLGKDKPVSCGLARSVSGKTPGDFYDRRTTKPEFLRPGPRKTEDTYFISSAGKPTPGTQGKIKLVKESSLSRQSKDSNPYATLPRASSVISTAEGTTRRTSIHDFLTKDSRLPISVDSPPAAADSNTTAASNVDKVQESRNSKSRSREQQSS
